Measured values from US8580516B2, “Methods and compositions for direct detection of DNA damage” (University of Chicago, priority 2008, dated 2013).

System: HL60 and K562 myeloid cell lines
Assay: Staining of fixed tissue culture cells treated with FeSO4/H2O2 (hydroxyl radicals)
Format: cell-based
Conditions: for binding after treatment with hydroxyl radicals: 100 μM FeSO4 and 100 μM H2O2, highest intensity in the nucleus; for background in control cells: fixed control cells

## NOCC(=O)NNC(=O)CCCC[C@@H]1SC[C@@H]2NC(=O)N[C@@H]21 [ARP, N-(aminooxyacetyl)-N′-(D-biotinoyl) hydrazine]
  binding after treatment with hydroxyl radicals: enhanced binding
  background in control cells: moderate background

## NOCC(=O)NNC(=O)CSCC(=O)Nc1ccc2c(c1)C(=O)OC21c2ccc(O)cc2Oc2cc(O)ccc21 [FARP, 5-(((2-(carbohydrazino)-methyl)thio)acetyl)aminofluorescein, aminooxyacetyl hydrazide]
  binding after treatment with hydroxyl radicals: enhanced binding
  background in control cells: moderate background
